Reference: PubChem BioAssay AID445 (National Center for Advancing Translational Sciences (NCATS), 2006)
The other results are listed elsewhere or left out. These are further read-outs of the screen, such as a control signal, another cell line or another target. No call is given for them. The list favours compounds with an active or inconclusive main result. Potencies come from curve fits of mixed quality, noted in brackets.

Assay: IkB Signaling
Conditions: ABC-DLBCL IkBa-CBG/CBR dual luciferase ratio (green luciferase fused to IkBa over red control in OCI-Ly3 lymphoma cells), 4 h
In short: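 In this assay, an IκBα–CBG68 fusion accumulates when IKK-driven degradation is blocked; native CBR normalizes for cell number. OCI-Ly3 cells were treated 4 h with compound and doxycycline, then green and red light read after Chroma-Glo addition.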

[1] = measured here: control luc red channel unless noted

## Cc1ccc(N2C(=O)C3C(C2=O)C(C(=O)c2ccc(Cl)cc2)N2CCCC32)cc1 (stereo unspecified)
[1]
  AC50: 10 µM [falling, partial curve]

## Cc1ccc(C)c(N2CCN(C(=O)C3CCC(CNS(=O)(=O)c4ccc(Br)s4)CC3)CC2)c1 (stereo unspecified)
[1]
  AC50: 6.31 µM [falling, partial curve]

## CCC(Sc1ncnc2sc3c(c12)CCCC3)C(=O)OCC(C)C (stereo unspecified)
[1]
  AC50: 25.1 µM [falling, partial curve]

## CCOC(=O)N1CCC(NC(=O)c2cnn(-c3ccc(C)cc3)c2C2CCN(C(=O)OC(C)(C)C)CC2)CC1
[1]
  AC50: 31.6 µM [falling, single point]

## COc1ccc(-n2c(SCc3nc(-c4ccc(Cl)cc4)no3)nnc2-c2ccncc2)cc1
[1]
  AC50: 25.1 µM [falling, single point]

## CCOc1ccc(-c2cc(CCCC(=O)NCCc3ccc(OC)c(OC)c3)no2)cc1
[1]
  AC50: 5.01 µM [falling, partial curve]

## CC(C)(C)C(=O)Nc1ccc2nc(SCCOc3ccccc3Cl)sc2c1
[1]
  AC50: 15.8 µM [falling, partial curve]

## Oc1cccc(Nc2cc(-c3ccccc3)ncn2)c1
[1]
  AC50: 15.8 µM [falling, partial curve]

## CCc1ccccc1NC(=O)Cn1nnc(C(=O)Nc2ccc(OC)c(OC)c2)c1N
[1]
  AC50: 25.1 µM [falling, single point]

## CCOc1cccc(C(=O)Nc2ccc(-c3nc4cc(C)cc(C)c4o3)cc2)c1
[1]
  AC50: 7.94 µM [falling, full curve, poor fit]

## CCCCN(Cc1ccco1)C(=O)c1cc2c(s1)-c1c(C)cccc1OC2
[1]
  AC50: 31.6 µM [falling, single point]

## CCOCCCNC(=O)Cn1cc2c(n1)-c1c(oc(C(=O)N3CCCC3)c1C)CC2
[1]
  AC50: 25.1 µM [falling, single point]

## CCc1ccccc1NC(=O)c1cnn(-c2ccc(F)cc2)c1C1CCNCC1
[1]
  AC50: 2 µM [falling, full curve, poor fit]

## Cc1cccc(OCCOCCn2c(-c3ccc(Cl)cc3)nc3ccccc3c2=O)c1C
[1]
  AC50: 2.51 µM [rising, partial curve]

## CC(C)c1ccc(NC(=O)c2cnn3c(C(F)F)cc(-c4ccccc4)nc23)cc1
[1]
  AC50: 6.31 µM [rising, full curve]

## CCOC(=O)C1CCCN(CC(=O)NC2=Nc3ccccc3N=C(C)C2c2ccccc2)C1 (stereo unspecified)
[1]
  AC50: 12.6 µM [falling, partial curve]

## Cc1cccc(NC(=O)CN2C(=O)COc3ccc(Cl)cc32)c1
[1]
  AC50: 15.8 µM [falling, partial curve]

## COc1cc(O)ccc1-c1nc2cc(C)ccn2c1Nc1ccccc1C
[1]
  AC50: 10 µM [falling, partial curve]

## Cc1cccc2c(=O)cc(CSc3ccccc3NC(=O)c3cccc(Br)c3)[nH]c12
[1]
  AC50: 15.8 µM [falling, partial curve]

## CCc1ccc(S(=O)(=O)Nc2cccc(-c3ccc(OC)nn3)c2)s1
[1]
  AC50: 12.6 µM [falling, partial curve, poor fit]

## COc1ccc(C2c3sc(=O)[nH]c3SC3C(=O)N(c4ccccc4)C(=O)C32)cc1 (stereo unspecified)
[1]
  AC50: 10 µM [falling, partial curve]

## CCOc1ccccc1NC(=O)NCc1noc2ccc(C)cc12
[1]
  AC50: 20 µM [falling, partial curve]

## COc1cc(C(=O)NCC(c2ccc3c(c2)OCO3)N2CCN(C)CC2)cc(OC)c1OC (stereo unspecified)
[1]
  AC50: 1 µM [rising, full curve, poor fit]

## CC(C)c1ccc2oc(-c3cc(NC(=O)c4cccnc4)ccc3Cl)nc2c1
[1]
  AC50: 15.8 µM [falling, partial curve]

## COc1cccc(NC(=O)c2sc3nc(C)c(C(=O)Nc4ccc(C)cc4C)c(-c4ccc(C)o4)c3c2N)c1
[1]
  AC50: 7.94 µM [falling, full curve]

## Cc1noc(C)c1COC(=O)c1cc(F)c(F)cc1Cl
[1]
  AC50: 20 µM [falling, partial curve]

## Cc1cccc(NC(=O)CN2C(=O)CC(c3ccccc3)Sc3ccccc32)c1 (stereo unspecified)
[1]
  AC50: 10 µM [falling, partial curve]

## COc1ccc(-c2nc(-c3ccc(NC(=O)c4ccncc4)cc3)no2)cc1OC
Measured here: IkB-luc green channel
  AC50: 3.98 µM [falling, full curve]
Measured here: control luc red channel
  AC50: 3.16 µM [falling, full curve]

## CC(CNC(=O)c1csc2c1CCCCC2)c1ccccc1 (stereo unspecified)
[1]
  AC50: 0.631 µM [rising, full curve]

## O=C(Nc1cccc(O)c1)c1cc(-c2ccccc2F)no1
[1]
  AC50: 25.1 µM [falling, single point]

## O=C(NCc1cccc(Cl)c1)c1ccc2c(Cl)c3c(nc2c1)CCCC3
[1]
  AC50: 7.94 µM [falling, partial curve]

## COc1ccc(CCN2C(=O)N(c3ccc(C)cc3)C(=O)C2CC(=O)Nc2ccc(OC)cc2)cc1 (stereo unspecified)
[1]
  AC50: 39.8 µM [falling, partial curve, poor fit]

## COc1ccccc1NC(=O)c1c(NCc2ccc(C)o2)sc2c1CCC(C)C2 (stereo unspecified)
[1]
  AC50: 10 µM [falling, partial curve]

## CC(C(=O)Nc1cc(C(F)(F)F)ccc1Cl)n1nnc2sc3c(c2c1=O)CCCC3 (stereo unspecified)
[1]
  AC50: 20 µM [falling, single point]

## COc1cccc(CNC(=O)c2nn(-c3ccccc3Cl)nc2CO)c1
[1]
  AC50: 15.8 µM [falling, single point]

## Cc1ccccc1C(=O)NCc1nc2cccnc2n1Cc1ccccc1
[1]
  AC50: 25.1 µM [falling, single point]

## CCC(Sc1nnnn1-c1ccccc1)C(=O)Nc1nc2ccccc2s1 (stereo unspecified)
[1]
  AC50: 12.6 µM [falling, partial curve]

## Cc1ccc2oc(-c3ccc(C)c(NC(=O)c4ccc(C(C)(C)C)cc4)c3)nc2c1
[1]
  AC50: 15.8 µM [falling, partial curve]

## Cc1ccc(-c2csc(=Nc3ccccc3)n2Cc2ccc3c(c2)OCO3)cc1C
[1]
  AC50: 3.98 µM [falling, full curve]

## C[N+]1(CCCCC[N+]2(C)CCCC2)CCCC1
[1]
  AC50: 39.8 µM [rising, partial curve, poor fit] [measured here: IkB-luc green channel]
